Experimental data from the supplement of paper PMC12067093, “Discovery and optimisation of a covalent ligand for TRIM25 and its application to targeted protein ubiquitination” (Chemical Science, 2025).
Some of the results follow.
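Further: competitive chemoproteomic profiling in live THP-1 cells with an iodoacetamide desthiobiotin (IA-DTB) probe, comparing probe-labelled peptide intensities in compound-treated cells against DMSO-treated controls.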

The chains behind the UniProt entries cited, without tags or fusion partners. Where a name states a change or a piece, a line headed by the entry shows the natural chain unless it says otherwise.
UniProt Q12789: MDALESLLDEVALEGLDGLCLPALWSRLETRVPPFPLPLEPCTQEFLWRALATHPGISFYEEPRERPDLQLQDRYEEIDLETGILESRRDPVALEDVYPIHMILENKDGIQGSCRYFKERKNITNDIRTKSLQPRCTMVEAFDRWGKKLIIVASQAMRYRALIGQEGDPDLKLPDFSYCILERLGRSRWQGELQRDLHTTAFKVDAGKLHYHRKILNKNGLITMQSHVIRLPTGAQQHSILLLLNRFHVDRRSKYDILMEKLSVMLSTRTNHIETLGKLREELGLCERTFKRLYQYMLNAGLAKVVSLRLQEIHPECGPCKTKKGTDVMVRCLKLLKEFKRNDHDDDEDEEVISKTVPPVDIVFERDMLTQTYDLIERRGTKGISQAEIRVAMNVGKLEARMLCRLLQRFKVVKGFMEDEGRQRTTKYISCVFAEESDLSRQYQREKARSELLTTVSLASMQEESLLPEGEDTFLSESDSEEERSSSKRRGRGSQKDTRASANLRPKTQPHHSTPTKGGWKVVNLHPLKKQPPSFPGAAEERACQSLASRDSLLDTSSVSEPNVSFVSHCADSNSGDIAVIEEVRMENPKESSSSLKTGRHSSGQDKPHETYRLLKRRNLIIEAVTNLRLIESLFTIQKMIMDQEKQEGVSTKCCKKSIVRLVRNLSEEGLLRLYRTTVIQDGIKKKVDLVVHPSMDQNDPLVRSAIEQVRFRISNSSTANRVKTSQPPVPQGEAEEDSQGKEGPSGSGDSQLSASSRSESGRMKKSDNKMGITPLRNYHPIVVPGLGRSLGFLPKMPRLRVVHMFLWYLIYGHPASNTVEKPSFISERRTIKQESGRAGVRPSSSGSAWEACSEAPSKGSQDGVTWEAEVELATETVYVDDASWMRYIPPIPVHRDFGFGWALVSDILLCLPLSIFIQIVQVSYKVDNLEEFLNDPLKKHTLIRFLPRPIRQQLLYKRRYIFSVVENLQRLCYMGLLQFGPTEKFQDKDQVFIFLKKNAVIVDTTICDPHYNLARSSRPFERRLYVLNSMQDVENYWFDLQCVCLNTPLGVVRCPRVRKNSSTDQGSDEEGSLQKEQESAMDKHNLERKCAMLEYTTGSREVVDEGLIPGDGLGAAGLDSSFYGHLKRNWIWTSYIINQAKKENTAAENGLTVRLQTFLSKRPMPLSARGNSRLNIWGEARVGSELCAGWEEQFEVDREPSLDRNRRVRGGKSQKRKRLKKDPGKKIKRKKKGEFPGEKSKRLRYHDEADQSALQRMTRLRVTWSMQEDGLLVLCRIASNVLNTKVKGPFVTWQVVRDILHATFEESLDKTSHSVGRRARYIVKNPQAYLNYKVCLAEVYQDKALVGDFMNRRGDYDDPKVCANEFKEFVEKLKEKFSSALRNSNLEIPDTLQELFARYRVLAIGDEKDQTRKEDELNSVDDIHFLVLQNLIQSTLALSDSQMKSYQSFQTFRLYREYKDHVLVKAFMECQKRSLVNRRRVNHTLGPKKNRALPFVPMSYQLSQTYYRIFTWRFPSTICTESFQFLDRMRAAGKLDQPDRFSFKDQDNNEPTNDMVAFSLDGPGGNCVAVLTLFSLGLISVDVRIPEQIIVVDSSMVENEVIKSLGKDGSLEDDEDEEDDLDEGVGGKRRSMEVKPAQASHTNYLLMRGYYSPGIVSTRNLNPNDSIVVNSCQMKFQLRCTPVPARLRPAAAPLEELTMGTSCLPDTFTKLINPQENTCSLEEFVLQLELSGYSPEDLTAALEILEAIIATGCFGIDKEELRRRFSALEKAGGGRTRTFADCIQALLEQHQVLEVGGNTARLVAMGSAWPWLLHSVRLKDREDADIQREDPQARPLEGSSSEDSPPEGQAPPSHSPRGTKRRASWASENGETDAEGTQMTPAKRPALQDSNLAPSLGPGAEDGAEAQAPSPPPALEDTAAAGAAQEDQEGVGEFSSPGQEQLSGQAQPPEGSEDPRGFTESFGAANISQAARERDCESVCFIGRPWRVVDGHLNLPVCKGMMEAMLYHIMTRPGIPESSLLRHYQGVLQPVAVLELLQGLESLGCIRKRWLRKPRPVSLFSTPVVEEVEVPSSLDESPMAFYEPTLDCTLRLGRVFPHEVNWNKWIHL
UniProt P78347: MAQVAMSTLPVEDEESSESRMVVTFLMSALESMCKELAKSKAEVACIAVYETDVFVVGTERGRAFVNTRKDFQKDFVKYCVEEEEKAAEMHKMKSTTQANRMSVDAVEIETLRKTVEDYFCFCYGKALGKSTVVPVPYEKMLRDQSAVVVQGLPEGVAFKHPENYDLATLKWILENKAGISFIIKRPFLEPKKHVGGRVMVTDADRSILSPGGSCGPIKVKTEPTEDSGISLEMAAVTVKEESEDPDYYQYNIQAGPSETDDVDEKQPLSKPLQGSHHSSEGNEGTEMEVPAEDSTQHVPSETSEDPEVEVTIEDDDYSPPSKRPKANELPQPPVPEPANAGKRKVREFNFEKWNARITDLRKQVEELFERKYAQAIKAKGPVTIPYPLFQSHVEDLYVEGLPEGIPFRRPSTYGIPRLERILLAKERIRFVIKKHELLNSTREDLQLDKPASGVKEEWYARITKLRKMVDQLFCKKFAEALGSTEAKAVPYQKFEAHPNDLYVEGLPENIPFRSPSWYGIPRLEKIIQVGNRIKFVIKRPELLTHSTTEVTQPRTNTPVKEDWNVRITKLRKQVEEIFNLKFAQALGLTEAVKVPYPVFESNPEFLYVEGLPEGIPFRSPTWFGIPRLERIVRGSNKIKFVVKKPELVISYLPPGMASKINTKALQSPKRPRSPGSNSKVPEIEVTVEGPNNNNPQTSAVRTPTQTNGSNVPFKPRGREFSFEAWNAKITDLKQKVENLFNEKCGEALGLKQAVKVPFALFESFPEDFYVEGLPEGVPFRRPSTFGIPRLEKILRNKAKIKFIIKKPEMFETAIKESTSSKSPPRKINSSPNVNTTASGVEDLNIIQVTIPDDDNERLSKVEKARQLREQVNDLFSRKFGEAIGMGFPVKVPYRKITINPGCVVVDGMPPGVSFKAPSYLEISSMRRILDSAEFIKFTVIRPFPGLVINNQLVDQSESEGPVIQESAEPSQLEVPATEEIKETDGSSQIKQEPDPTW
UniProt P49841: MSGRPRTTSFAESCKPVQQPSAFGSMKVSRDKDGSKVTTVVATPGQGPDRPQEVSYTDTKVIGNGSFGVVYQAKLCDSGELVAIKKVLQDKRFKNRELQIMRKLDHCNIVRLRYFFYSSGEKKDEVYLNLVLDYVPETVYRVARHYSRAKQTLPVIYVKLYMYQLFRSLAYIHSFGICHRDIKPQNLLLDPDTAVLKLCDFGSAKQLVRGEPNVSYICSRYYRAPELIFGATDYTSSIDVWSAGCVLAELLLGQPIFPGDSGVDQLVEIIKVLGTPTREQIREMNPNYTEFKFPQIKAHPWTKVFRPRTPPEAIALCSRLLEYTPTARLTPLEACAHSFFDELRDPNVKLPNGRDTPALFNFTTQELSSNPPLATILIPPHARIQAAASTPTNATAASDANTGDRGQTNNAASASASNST
UniProt Q8TD30: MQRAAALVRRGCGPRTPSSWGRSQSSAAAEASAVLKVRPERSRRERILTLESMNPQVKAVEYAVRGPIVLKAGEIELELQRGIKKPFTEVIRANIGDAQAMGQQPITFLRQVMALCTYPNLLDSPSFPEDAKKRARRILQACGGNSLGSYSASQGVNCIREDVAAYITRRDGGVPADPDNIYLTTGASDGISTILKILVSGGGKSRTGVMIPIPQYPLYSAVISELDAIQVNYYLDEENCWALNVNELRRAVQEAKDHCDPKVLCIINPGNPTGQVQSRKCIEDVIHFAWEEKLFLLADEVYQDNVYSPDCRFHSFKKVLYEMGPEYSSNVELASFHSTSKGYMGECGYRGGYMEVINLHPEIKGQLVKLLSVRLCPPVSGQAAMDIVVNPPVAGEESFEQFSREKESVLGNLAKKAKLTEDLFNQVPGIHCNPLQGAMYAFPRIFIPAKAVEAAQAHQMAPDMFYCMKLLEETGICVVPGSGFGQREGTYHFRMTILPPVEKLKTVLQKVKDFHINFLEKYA
UniProt A4D1E9: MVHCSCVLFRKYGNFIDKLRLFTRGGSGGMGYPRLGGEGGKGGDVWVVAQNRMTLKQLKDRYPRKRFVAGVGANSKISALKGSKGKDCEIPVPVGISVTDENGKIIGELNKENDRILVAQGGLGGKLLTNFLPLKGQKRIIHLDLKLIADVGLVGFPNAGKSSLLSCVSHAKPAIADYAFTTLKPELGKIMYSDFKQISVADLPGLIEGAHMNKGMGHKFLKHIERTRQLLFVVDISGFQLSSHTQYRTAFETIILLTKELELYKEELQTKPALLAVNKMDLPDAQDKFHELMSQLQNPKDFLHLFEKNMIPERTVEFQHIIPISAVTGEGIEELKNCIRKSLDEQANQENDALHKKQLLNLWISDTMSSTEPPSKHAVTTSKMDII
UniProt P07203, whole entry, looked up: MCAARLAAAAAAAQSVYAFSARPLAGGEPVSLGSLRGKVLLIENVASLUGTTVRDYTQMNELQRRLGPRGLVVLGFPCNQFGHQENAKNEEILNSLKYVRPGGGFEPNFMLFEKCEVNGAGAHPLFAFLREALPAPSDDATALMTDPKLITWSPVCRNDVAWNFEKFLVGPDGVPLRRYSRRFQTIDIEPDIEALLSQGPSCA
UniProt Q92917: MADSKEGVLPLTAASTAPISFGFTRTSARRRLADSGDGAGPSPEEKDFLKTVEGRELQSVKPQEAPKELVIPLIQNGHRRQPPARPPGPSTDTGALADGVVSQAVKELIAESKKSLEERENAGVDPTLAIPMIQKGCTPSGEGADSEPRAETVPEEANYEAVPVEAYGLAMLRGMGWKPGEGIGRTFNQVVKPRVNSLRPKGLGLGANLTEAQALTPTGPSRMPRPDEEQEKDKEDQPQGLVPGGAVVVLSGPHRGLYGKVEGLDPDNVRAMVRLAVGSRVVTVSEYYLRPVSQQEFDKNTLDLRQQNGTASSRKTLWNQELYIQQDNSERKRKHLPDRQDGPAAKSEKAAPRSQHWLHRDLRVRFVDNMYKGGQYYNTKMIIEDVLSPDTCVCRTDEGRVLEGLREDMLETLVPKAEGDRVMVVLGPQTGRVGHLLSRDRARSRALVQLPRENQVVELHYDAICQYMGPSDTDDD
UniProt Q9UJ83: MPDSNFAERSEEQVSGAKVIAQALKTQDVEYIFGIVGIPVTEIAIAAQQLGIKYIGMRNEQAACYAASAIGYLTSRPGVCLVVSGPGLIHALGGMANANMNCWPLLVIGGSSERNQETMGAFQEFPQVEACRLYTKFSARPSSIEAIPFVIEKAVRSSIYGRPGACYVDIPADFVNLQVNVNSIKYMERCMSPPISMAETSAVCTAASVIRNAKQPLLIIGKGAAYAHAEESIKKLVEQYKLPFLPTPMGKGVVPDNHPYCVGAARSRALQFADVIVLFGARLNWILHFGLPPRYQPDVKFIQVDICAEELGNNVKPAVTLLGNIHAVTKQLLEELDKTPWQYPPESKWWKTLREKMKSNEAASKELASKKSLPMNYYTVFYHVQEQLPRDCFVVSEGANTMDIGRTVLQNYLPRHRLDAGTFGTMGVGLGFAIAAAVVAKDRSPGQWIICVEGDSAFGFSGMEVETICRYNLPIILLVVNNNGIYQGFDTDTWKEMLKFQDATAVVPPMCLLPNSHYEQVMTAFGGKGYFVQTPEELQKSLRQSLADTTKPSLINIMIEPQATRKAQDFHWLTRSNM
UniProt Q9P0M6, whole entry: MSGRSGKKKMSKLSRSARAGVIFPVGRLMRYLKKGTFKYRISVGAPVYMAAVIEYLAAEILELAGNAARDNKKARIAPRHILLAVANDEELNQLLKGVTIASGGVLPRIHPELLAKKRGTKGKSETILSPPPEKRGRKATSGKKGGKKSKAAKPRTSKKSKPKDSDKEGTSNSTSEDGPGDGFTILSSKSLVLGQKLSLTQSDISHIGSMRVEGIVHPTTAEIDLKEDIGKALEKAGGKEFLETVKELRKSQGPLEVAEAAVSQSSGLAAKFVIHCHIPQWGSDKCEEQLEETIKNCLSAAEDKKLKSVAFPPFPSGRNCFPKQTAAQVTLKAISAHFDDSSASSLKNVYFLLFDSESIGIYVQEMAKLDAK
UniProt P12081: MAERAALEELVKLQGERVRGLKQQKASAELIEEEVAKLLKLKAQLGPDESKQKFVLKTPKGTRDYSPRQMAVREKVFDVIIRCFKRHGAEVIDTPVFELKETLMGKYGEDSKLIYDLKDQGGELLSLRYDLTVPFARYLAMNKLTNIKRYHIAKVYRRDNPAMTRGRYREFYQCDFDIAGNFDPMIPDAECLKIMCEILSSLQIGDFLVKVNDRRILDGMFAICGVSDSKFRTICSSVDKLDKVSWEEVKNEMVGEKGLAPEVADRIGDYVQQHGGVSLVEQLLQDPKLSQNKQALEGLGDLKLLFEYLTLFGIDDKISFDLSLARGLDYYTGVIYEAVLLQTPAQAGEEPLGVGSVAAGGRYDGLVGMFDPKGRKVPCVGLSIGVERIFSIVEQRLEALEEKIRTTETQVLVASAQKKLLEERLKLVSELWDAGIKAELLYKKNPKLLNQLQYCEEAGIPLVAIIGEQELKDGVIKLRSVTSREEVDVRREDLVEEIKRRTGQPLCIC

Each target was assayed with CC1Cc2ccccc2N1C(=O)C1CCCN(C1)C(=O)CCl (mixture of isomers) [TRIM25 ligand 11 (diastereomer mixture)] (assay: probe-labelled cysteine peptide fold change vs DMSO (competition) (log2 fold change); higher = less target engagement (more negative = stronger competition)). Details: 10 µM; THP-1; incubation time: 4 h.
In the case of “GTF3C1_Q12789_1008_NAVIVDTTICDPHYNLAR (UniProt Q12789)”, the “probe-labelled cysteine peptide fold change” value is reported as 0.0325. “HAGHL_Q6PII5_170_VFCGHEHTLSNLEFAQK (UniProt Q6PII5)” was tested, and the “probe-labelled cysteine peptide fold change” value was 0.0132. “GTF2I_P78347_46_SKAEVACIAVYETDVFVVGTER (UniProt P78347)” was tested, and the “probe-labelled cysteine peptide fold change” value was 0.128. With HADH_Q16836_211_HPVSCK (UniProt Q16836) the “probe-labelled cysteine peptide fold change” value was 0.0299. With “GTF2H2_Q13888_139_AVDMTCHGEPSLYNSLSIAMQTLK (UniProt Q13888)” the “probe-labelled cysteine peptide fold change” value was 0.0294. In the case of “GSDME_O60443_180_CGGIVGIQTK (UniProt O60443)”, the “probe-labelled cysteine peptide fold change” value is reported as -0.066. In the case of “HADHB_P55084_458_EGGQYGLVAACAAGGQGHAMIVEAYPK (UniProt P55084)”, the “probe-labelled cysteine peptide fold change” value is reported as -0.107. In the case of “GYS1_P13807_444_QSFPPVCTHNMLDDSSDPILTTIRR (UniProt P13807)”, the “probe-labelled cysteine peptide fold change” value is reported as -0.36. With “GSK3B_P49841_76_LCDSGELVAIKK (UniProt P49841)” the “probe-labelled cysteine peptide fold change” value was -0.205. In the case of “HAT1_O14929_120_QIIPPGFCTNTNDFLSLLEK (UniProt O14929)”, the “probe-labelled cysteine peptide fold change” value is reported as -0.0149. “GRPEL2_Q8TAA5_182_LTPIGDKYDPHEHELICHVPAGVGVQPGTVALVR (UniProt Q8TAA5)” was tested, and the “probe-labelled cysteine peptide fold change” value was -0.0122. For “HADHB_P55084_435_FNNWGGSLSLGHPFGATGCR (UniProt P55084)”, the “probe-labelled cysteine peptide fold change” value was -0.0426. “GTF2I_P78347_215_SILSPGGSCGPIK (UniProt P78347)” was tested, and the “probe-labelled cysteine peptide fold change” value was -0.0394. With “GTF3C6_Q969F1_178_SLELEEEEIQMNDSSNLSCEQEK (UniProt Q969F1)” the “probe-labelled cysteine peptide fold change” value was 0.162. With “H2AFY_O75367_286_FVIHCNSPVWGADKCEELLEK (UniProt O75367)” the “probe-labelled cysteine peptide fold change” value was -0.152. “GPT2_Q8TD30_432_LTEDLFNQVPGIHCNPLQGAMYAFPR (UniProt Q8TD30)” was tested, and the “probe-labelled cysteine peptide fold change” value was -0.0559. “GTPBP10_A4D1E9_167_SSLLSCVSHAK (UniProt A4D1E9)” was tested, and the “probe-labelled cysteine peptide fold change” value was 0.0653. For “GPX1_P07203_156_LITWSPVCR (UniProt P07203)”, the “probe-labelled cysteine peptide fold change” value was -0.0459. In the case of “GRN_P28799_543_QGWACCPYR (UniProt P28799)”, the “probe-labelled cysteine peptide fold change” value is reported as -0.051. With “GPKOW_Q92917_137_GCTPSGEGADSEPR (UniProt Q92917)” the “probe-labelled cysteine peptide fold change” value was -0.0976. For “GSN_P06396_228_ATEVPVSWESFNNGDCFILDLGNNIHQWCGSNSNR (UniProt P06396)”, the “probe-labelled cysteine peptide fold change” value was -0.0974. “GSTP1_P09211_102_DQQEAALVDMVNDGVEDLRCK (UniProt P09211)” was tested, and the “probe-labelled cysteine peptide fold change” value was -0.268. “GSDMD_P57764_191_FSLPGATCLQGEGQGHLSQK (UniProt P57764)” was tested, and the “probe-labelled cysteine peptide fold change” value was 0.0159. For “GTSF1_Q8WW33_51_LATCPFNAR (UniProt Q8WW33)”, the “probe-labelled cysteine peptide fold change” value was -0.439. For “GRN_P28799_171_VHCCPHGAFCDLVHTR (UniProt P28799)”, the “probe-labelled cysteine peptide fold change” value was -0.00859. For “GYS1_P13807_251_AAAHCAHVFTTVSQITAIEAQHLLK (UniProt P13807)”, the “probe-labelled cysteine peptide fold change” value was 0.145. For “GTF3C4_Q9UKN8_764_QAVCSNGHIWLR (UniProt Q9UKN8)”, the “probe-labelled cysteine peptide fold change” value was 0.0218. “GSTP1_P09211_48_ASCLYGQLPK (UniProt P09211)” was tested, and the “probe-labelled cysteine peptide fold change” value was 0.0608. With “HACL1_Q9UJ83_392_DCFVVSEGANTMDIGR (UniProt Q9UJ83)” the “probe-labelled cysteine peptide fold change” value was 0.00692. For “GSR_P00390_467_MVCANKEEK (UniProt P00390)”, the “probe-labelled cysteine peptide fold change” value was -0.139. In the case of “GSTM3_P21266_3_SCESSMVLGYWDIR (UniProt P21266)”, the “probe-labelled cysteine peptide fold change” value is reported as -0.13. In the case of “GSTCD_Q8NEC7_571_EHMILCR (UniProt Q8NEC7)”, the “probe-labelled cysteine peptide fold change” value is reported as 0.0436. In the case of “GTPBP2_Q9BX10_36_GAGSSSGCGGPK (UniProt Q9BX10)”, the “probe-labelled cysteine peptide fold change” value is reported as -0.0968. “HAGHL_Q6PII5_188_VEPCNDHVR (UniProt Q6PII5)” was tested, and the “probe-labelled cysteine peptide fold change” value was 0.0214. “H2AFY2_Q9P0M6_286_CEEQLEETIK (UniProt Q9P0M6)” was tested, and the “probe-labelled cysteine peptide fold change” value was 0.236. For “GSK3B_P49841_317_TPPEAIALCSR (UniProt P49841)”, the “probe-labelled cysteine peptide fold change” value was -0.215. For “HARS_P12081_235_TICSSVDK (UniProt P12081)”, the “probe-labelled cysteine peptide fold change” value was 0.0434.

Same assay, conditions: 50 µM; THP-1; incubation time: 4 h
For “GTF3C1_Q12789_1008_NAVIVDTTICDPHYNLAR (UniProt Q12789)”, the “probe-labelled cysteine peptide fold change” value was 0.0452. “HAGHL_Q6PII5_170_VFCGHEHTLSNLEFAQK (UniProt Q6PII5)” was tested, and the “probe-labelled cysteine peptide fold change” value was -0.0981. With “GTF2I_P78347_46_SKAEVACIAVYETDVFVVGTER (UniProt P78347)” the “probe-labelled cysteine peptide fold change” value was 0.0217. With HADH_Q16836_211_HPVSCK (UniProt Q16836) the “probe-labelled cysteine peptide fold change” value was -0.0168. In the case of “GTF2H2_Q13888_139_AVDMTCHGEPSLYNSLSIAMQTLK (UniProt Q13888)”, the “probe-labelled cysteine peptide fold change” value is reported as 0.0894. With “GSDME_O60443_180_CGGIVGIQTK (UniProt O60443)” the “probe-labelled cysteine peptide fold change” value was -0.166. “HADHB_P55084_458_EGGQYGLVAACAAGGQGHAMIVEAYPK (UniProt P55084)” was tested, and the “probe-labelled cysteine peptide fold change” value was -0.0403. In the case of “GYS1_P13807_444_QSFPPVCTHNMLDDSSDPILTTIRR (UniProt P13807)”, the “probe-labelled cysteine peptide fold change” value is reported as -0.147. For “GSK3B_P49841_76_LCDSGELVAIKK (UniProt P49841)”, the “probe-labelled cysteine peptide fold change” value was -0.0841. For “HAT1_O14929_120_QIIPPGFCTNTNDFLSLLEK (UniProt O14929)”, the “probe-labelled cysteine peptide fold change” value was -0.0407. For “GRPEL2_Q8TAA5_182_LTPIGDKYDPHEHELICHVPAGVGVQPGTVALVR (UniProt Q8TAA5)”, the “probe-labelled cysteine peptide fold change” value was 0.0426. For “HADHB_P55084_435_FNNWGGSLSLGHPFGATGCR (UniProt P55084)”, the “probe-labelled cysteine peptide fold change” value was 0.00267. In the case of “GTF2I_P78347_215_SILSPGGSCGPIK (UniProt P78347)”, the “probe-labelled cysteine peptide fold change” value is reported as -0.16. With “GTF3C6_Q969F1_178_SLELEEEEIQMNDSSNLSCEQEK (UniProt Q969F1)” the “probe-labelled cysteine peptide fold change” value was -0.0756. With “H2AFY_O75367_286_FVIHCNSPVWGADKCEELLEK (UniProt O75367)” the “probe-labelled cysteine peptide fold change” value was -0.0526. In the case of “GPT2_Q8TD30_432_LTEDLFNQVPGIHCNPLQGAMYAFPR (UniProt Q8TD30)”, the “probe-labelled cysteine peptide fold change” value is reported as -0.0781. With “GTPBP10_A4D1E9_167_SSLLSCVSHAK (UniProt A4D1E9)” the “probe-labelled cysteine peptide fold change” value was -0.032. In the case of “GPX1_P07203_156_LITWSPVCR (UniProt P07203)”, the “probe-labelled cysteine peptide fold change” value is reported as 0.00151. “GRN_P28799_543_QGWACCPYR (UniProt P28799)” was tested, and the “probe-labelled cysteine peptide fold change” value was -0.116. In the case of “GPKOW_Q92917_137_GCTPSGEGADSEPR (UniProt Q92917)”, the “probe-labelled cysteine peptide fold change” value is reported as -0.157. For “GSN_P06396_228_ATEVPVSWESFNNGDCFILDLGNNIHQWCGSNSNR (UniProt P06396)”, the “probe-labelled cysteine peptide fold change” value was -0.0796. “GSTP1_P09211_102_DQQEAALVDMVNDGVEDLRCK (UniProt P09211)” was tested, and the “probe-labelled cysteine peptide fold change” value was -0.324. With “GSDMD_P57764_191_FSLPGATCLQGEGQGHLSQK (UniProt P57764)” the “probe-labelled cysteine peptide fold change” value was -0.53. With “GTSF1_Q8WW33_51_LATCPFNAR (UniProt Q8WW33)” the “probe-labelled cysteine peptide fold change” value was -0.231. In the case of “GRN_P28799_171_VHCCPHGAFCDLVHTR (UniProt P28799)”, the “probe-labelled cysteine peptide fold change” value is reported as 0.306. With “GYS1_P13807_251_AAAHCAHVFTTVSQITAIEAQHLLK (UniProt P13807)” the “probe-labelled cysteine peptide fold change” value was 0.111. “GTF3C4_Q9UKN8_764_QAVCSNGHIWLR (UniProt Q9UKN8)” was tested, and the “probe-labelled cysteine peptide fold change” value was -0.0524. “GSTP1_P09211_48_ASCLYGQLPK (UniProt P09211)” was tested, and the “probe-labelled cysteine peptide fold change” value was 0.0273. “HACL1_Q9UJ83_392_DCFVVSEGANTMDIGR (UniProt Q9UJ83)” was tested, and the “probe-labelled cysteine peptide fold change” value was 0.0733. In the case of “GSR_P00390_467_MVCANKEEK (UniProt P00390)”, the “probe-labelled cysteine peptide fold change” value is reported as -0.0254. “GSTM3_P21266_3_SCESSMVLGYWDIR (UniProt P21266)” was tested, and the “probe-labelled cysteine peptide fold change” value was -0.535. “GSTCD_Q8NEC7_571_EHMILCR (UniProt Q8NEC7)” was tested, and the “probe-labelled cysteine peptide fold change” value was 0.126. “GTPBP2_Q9BX10_36_GAGSSSGCGGPK (UniProt Q9BX10)” was tested, and the “probe-labelled cysteine peptide fold change” value was -0.151. “HAGHL_Q6PII5_188_VEPCNDHVR (UniProt Q6PII5)” was tested, and the “probe-labelled cysteine peptide fold change” value was 0.0203. For “H2AFY2_Q9P0M6_286_CEEQLEETIK (UniProt Q9P0M6)”, the “probe-labelled cysteine peptide fold change” value was 0.13. In the case of “GSK3B_P49841_317_TPPEAIALCSR (UniProt P49841)”, the “probe-labelled cysteine peptide fold change” value is reported as 0.055. With “HARS_P12081_235_TICSSVDK (UniProt P12081)” the “probe-labelled cysteine peptide fold change” value was 0.149.
